Source: doi:10.1101/2021.02.17.431525
These are yes or no findings as the source states them, for the method shown. Binding seen in cells or lysates may run through a third protein. Some results given as binding are weak or reduced against the parent protein; the word gives no strength.

By UniProt entry, the sequences of proteins in these tests, tags left out. Residues count along the entry.
UniProt P04629, residues 33-796: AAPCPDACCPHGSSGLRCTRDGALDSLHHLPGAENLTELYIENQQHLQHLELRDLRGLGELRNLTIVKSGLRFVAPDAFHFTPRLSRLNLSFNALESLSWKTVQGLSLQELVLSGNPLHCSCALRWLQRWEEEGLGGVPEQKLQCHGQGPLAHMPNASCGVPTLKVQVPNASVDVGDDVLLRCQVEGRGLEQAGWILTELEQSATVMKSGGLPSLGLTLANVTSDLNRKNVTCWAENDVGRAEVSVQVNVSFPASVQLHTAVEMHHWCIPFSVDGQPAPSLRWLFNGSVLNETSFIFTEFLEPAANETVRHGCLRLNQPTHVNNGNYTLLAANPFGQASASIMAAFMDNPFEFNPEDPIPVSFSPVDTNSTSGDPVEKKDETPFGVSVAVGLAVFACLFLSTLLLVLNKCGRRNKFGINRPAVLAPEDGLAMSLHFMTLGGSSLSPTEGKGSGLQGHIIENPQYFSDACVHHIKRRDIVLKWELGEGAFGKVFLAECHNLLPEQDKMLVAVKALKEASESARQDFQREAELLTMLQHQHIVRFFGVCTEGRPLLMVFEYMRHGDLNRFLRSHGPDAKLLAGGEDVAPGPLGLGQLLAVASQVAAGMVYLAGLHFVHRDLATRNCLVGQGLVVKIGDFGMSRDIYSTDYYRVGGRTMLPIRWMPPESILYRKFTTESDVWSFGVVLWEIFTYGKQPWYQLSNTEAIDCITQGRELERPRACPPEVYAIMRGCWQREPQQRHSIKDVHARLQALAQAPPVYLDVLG
UniProt P62993: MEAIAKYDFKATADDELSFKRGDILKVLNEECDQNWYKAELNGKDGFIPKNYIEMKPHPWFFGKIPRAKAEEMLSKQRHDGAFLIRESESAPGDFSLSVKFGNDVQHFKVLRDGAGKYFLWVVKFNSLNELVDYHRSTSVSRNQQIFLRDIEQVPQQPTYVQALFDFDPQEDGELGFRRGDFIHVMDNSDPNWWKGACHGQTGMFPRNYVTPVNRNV

Target: neurotrophin receptor tyrosine kinase (NTRK1 or TRKA) (human (endogenous in SH-SY5Y)) (UniProt P04629)
Experiment: co-IP

growth factor receptor bound protein 2 (from UniProt P62993 1-217)
binding: binds
